# Data as given in PubChem BioAssay AID504764 (Drosophila RNAi Screening Center, 2011).
# Purpose: 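Knock-downs that raise or lower a Notch target reporter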 (primary screen)
# Cell system: Drosophila Kc167 cells
# Reagent: long dsRNA against Drosophila genes
# Time to read-out: about 5 days (4 days dsRNA, then 24 h after transfection)
# Conditions: transfection of constitutively active membrane-tethered Notch lacking the extracellular domain, read 24 h later
# Measurement: 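Light from a Notch-responsive E(spl)m3 luciferase reporter under active Notch, with control-promoter and no-Notch reporter wells to normalise; raw counts from paired wells a and b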
# Scale: induced reporter light, run 1, well a and induced reporter light, run 1, well b: higher = more light from the Notch target reporter with active Notch; control promoter light, run 1, well a and control promoter light, run 1, well b: higher = more light from the viral control promoter (cell number, transfection, viability); uninduced reporter light, run 1, well a: higher = more light from the Notch target reporter without active Notch
# Hit rule: 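Wells with low control signal or poorly matching duplicates excluded; duplicates averaged; per source plate, z beyond ±2 for induced/control log2 ratio or beyond ±1.8 for induced/uninduced marks a hit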
# Meaning of the calls: active = modifier hit (raised or lowered Notch signal); inactive = not a hit
# In all, the deposit lists about 22,000 reagents; shown is a random part of those that have a named target and a result. Over the whole deposit, 403 (1.9%) are marked active. 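Unnormalised raw counts per well; ratio z-scores behind the hit calls and whether each hit raises or lowers signal are not deposited.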 Not stated in the record: the amount of reagent.
gene,DRSC id,"induced reporter light, run 1, well a","induced reporter light, run 1, well b","control promoter light, run 1, well a","control promoter light, run 1, well b","uninduced reporter light, run 1, well a",outcome
Rpn12R (GeneID 2768973),DRSC09842,2.13e5,2.00e5,3.99e5,3.46e5,10938,inactive
CG10214 (GeneID 42811),DRSC14213,1.55e5,1.86e5,2.36e5,2.42e5,13715,inactive
Ars2 (GeneID 35539),DRSC04893,73000,89355,92065,93895,5010,inactive
Mid1 (GeneID 37953),DRSC04230,2.03e5,1.66e5,1.36e5,1.30e5,12310,inactive
Mid1 (GeneID 37953),DRSC04231,1.96e5,1.79e5,1.58e5,1.51e5,12925,inactive
Mid1 (GeneID 37953),DRSC04308,1.54e5,1.04e5,1.14e5,1.11e5,11580,inactive
Mid1 (GeneID 37953),DRSC22803,,,,,,active
ms(3)K81 (GeneID 43232),DRSC14746,1.64e5,1.08e5,2.00e5,1.97e5,11320,inactive
CG32271 (GeneID 38392),DRSC08198,62545,1.15e5,1.71e5,2.47e5,9370,active
CG13008 (GeneID 32654),DRSC19527,36245,31230,22660,22105,3915,inactive
CG13008 (GeneID 32654),DRSC19528,53205,47470,72605,35150,8082,inactive
Bin1 (GeneID 41965),DRSC16843,1.60e5,1.92e5,1.62e5,1.64e5,15745,inactive
CG5768 (GeneID 42915),DRSC15870,1.09e5,1.19e5,1.00e5,1.19e5,10432,inactive
Prim2 (GeneID 44915),DRSC11610,89390,70225,42890,51800,7690,inactive
CG13843 (GeneID 42668),DRSC14693,1.89e5,1.42e5,1.83e5,1.79e5,12250,inactive
Prosbeta4 (GeneID 34999),DRSC02603,57910,59655,64745,60615,3765,inactive

The list goes on; the last 3 above are carried over.
gene,DRSC id,"induced reporter light, run 1, well a","induced reporter light, run 1, well b","control promoter light, run 1, well a","control promoter light, run 1, well b","uninduced reporter light, run 1, well a",outcome
Prim2 (GeneID 44915),DRSC11610,89390,70225,42890,51800,7690,inactive
CG13843 (GeneID 42668),DRSC14693,1.89e5,1.42e5,1.83e5,1.79e5,12250,inactive
Prosbeta4 (GeneID 34999),DRSC02603,57910,59655,64745,60615,3765,inactive
Doc3 (GeneID 39036),DRSC10480,90895,71560,98335,71220,5150,inactive
hiw (GeneID 32429),DRSC20338,86975,75210,1.02e5,99000,10705,inactive
hiw (GeneID 32429),DRSC20339,11150,10945,9930,7325,3015,inactive
Btk (GeneID 34132),DRSC02008,1.68e5,1.75e5,1.21e5,1.58e5,22460,inactive
Btk (GeneID 34132),DRSC02666,75140,74020,58820,67625,5275,inactive
kat80 (GeneID 32581),DRSC20344,34605,32950,33280,27175,3580,inactive
kat80 (GeneID 32581),DRSC20345,59780,67725,87535,51960,10520,inactive
CG32532 (GeneID 32943),DRSC19556,82480,88685,79120,1.23e5,7750,inactive
CG32532 (GeneID 32943),DRSC19557,1.18e5,1.03e5,1.11e5,1.18e5,10630,inactive
CG32532 (GeneID 32943),DRSC19558,1.11e5,85640,1.28e5,1.17e5,11445,inactive
Nepl15 (GeneID 42701),DRSC15630,26115,30390,32825,35485,2575,inactive
Chd1 (GeneID 33505),DRSC00745,1.80e5,1.58e5,1.47e5,1.52e5,16525,inactive
CG13460 (GeneID 39638),DRSC10007,2.08e5,2.17e5,2.82e5,2.62e5,12330,inactive
CG32054 (GeneID 326185),DRSC10684,1.97e5,1.50e5,1.85e5,1.88e5,9825,inactive
Cep97 (GeneID 33610),DRSC00637,2.03e5,2.07e5,2.13e5,2.07e5,20660,inactive
Hmgcl (GeneID 33978),DRSC02051,55935,58510,56740,53415,4310,inactive
CG13506 (GeneID 37556),DRSC04150,1.69e5,1.57e5,1.60e5,1.52e5,13175,inactive
DNAlig4 (GeneID 32322),DRSC19436,57875,65685,70680,51055,5435,inactive
